According to PubChem BioAssay AID504834 (National Center for Advancing Translational Sciences (NCATS), 2011):
Screen size: about 320,000 compounds; about 22,000 (6.9%) were called active. This list was built around the results that the source calls inconclusive (neither active nor inactive); the mix of calls is not that of the screen. The call rests on the fitted dose curve; in most records, active means well fitted inhibition curve with a large enough effect; inconclusive means small, poorly fitted or top-dose-only effect, or another doubt; inactive means no such curve, though single readings can be large or run the other way. Potencies beside an inconclusive call are fits to weak or partial responses and may not hold up.

assay: Primary qHTS for delayed death inhibitors of the malarial parasite plastid, 96 hour incubation; conditions: P. falciparum luciferase reporter growth; series mostly up to 28.7 µM
Method in brief: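 Two parasite generations (96 h, 37 C, 5% CO2) of compound exposure in infected erythrocytes (0.05% parasitemia, 2% hematocrit). Luciferase-reporter P. falciparum; decreased luminescence indicates inhibited growth, aimed at apicoplast-acting delayed death.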
Potency means the concentration at half of the fitted maximal effect.

SMILES | Potency
COC(=O)C(C)N(C(=O)c1ccc(Cl)cc1)c1c(C)cccc1C (configuration not stated) | inconclusive: 14.7 µM [inhibitor, single point]
Cc1cc2ncn(C(=O)c3ccc4c(c3)OCO4)c2cc1C | active: 2.94 µM
SC(COCc1ccccc1)CN1CCN(Cc2ccc3c(c2)OCO3)CC1 (configuration not stated) | active: 8.28 µM
COc1ccc(Nc2nc(C)cc(=O)[nH]2)cc1 | inconclusive: 14.7 µM [inhibitor, single point]
CCOC(=O)N1CCN(C(=O)CCCCn2c(=S)[nH]c3ccsc3c2=O)CC1 | inactive
Cc1cccc2c(N=Nc3ccc(S(=O)(=O)Nc4ccc(Cl)cc4)cc3[N+](=O)[O-])c(O)[nH]c12 | inconclusive: 2.62 µM [inhibitor, full curve]
COc1cc(NC(=O)CSc2c3c(nc4ccccc24)CCC3)cc(OC)c1OC | inconclusive: 5.22 µM [inhibitor, partial curve, poor fit]
Cc1c(C(=O)NCc2cccnc2)sc2nc(-c3ccc(F)cc3)cn12 | inconclusive: 13.1 µM [inhibitor, single point]
O=[N+]([O-])c1ccc(/C=[N+](\[O-])CCO)o1 | inconclusive: 2.33 µM [inhibitor, full curve]
O=C(NC(Oc1ccccc1)C(Cl)(Cl)Cl)c1ccccc1 (configuration not stated) | inconclusive: 9.28 µM [inhibitor, single point]
Cc1nc(Cc2nnc(SC(C)C(=O)N3c4ccccc4NC(=O)C3(C)C)o2)cs1 (configuration not stated) | inconclusive: 18.5 µM [inhibitor, single point]
CCN(CC)c1nc2cc(OC)ccc2cc1C#N | inconclusive: 4.65 µM [inhibitor, partial curve, poor fit]
CCCC(C(=O)NC(C)(C)C)N(C(=O)c1snc(C(N)=O)c1N)c1ccc2c(c1)OCCO2 (configuration not stated) | inconclusive: 14.7 µM [inhibitor, partial curve, poor fit]
OCCN1CCN(CCOc2ccccc2-c2ccccc2)CC1 | inactive
CCOc1ccc(S(=O)(=O)N2CCN(C(=O)Cc3ccc(S(=O)(=O)N4CCOCC4)s3)CC2)cc1 | inconclusive: 8.28 µM [inhibitor, partial curve]
CCOc1ccc(/C=C/C(=O)c2ccc(-c3ccccc3)cc2)cc1 | inactive
Cc1ccc(NC(NC(=O)OCCn2c([N+](=O)[O-])cnc2C)C(Cl)(Cl)Cl)cc1 (configuration not stated) | inconclusive: 1.85 µM [inhibitor, full curve, poor fit]
CC1CCN(C(=O)COC(=O)c2cc(S(=O)(=O)N3CCOCC3)ccc2Cl)CC1 | inactive
Cc1oc(-c2cccc(Cl)c2)nc1CN(C)C1CCOC1 (configuration not stated) | inactive
O=C(CSc1ccc(-c2ccccn2)nn1)Nc1ccccc1 | inconclusive: 4.15 µM [inhibitor, partial curve, poor fit]
CCc1ccc(NC(=O)CSc2nc3ccsc3c(=O)n2CCC(=O)O)cc1 | active: 7.38 µM
CN1CCN(C(=O)C2=C[C@H](c3ccc(C(F)(F)F)cc3)C[C@H](OCc3ccc(CO)cc3)O2)CC1 | inconclusive: 13.1 µM [inhibitor, single point]
O=C(COc1ccc2c(c1)oc(=O)c1ccccc12)NCC1CCC(C(=O)O)CC1 (configuration not stated) | inactive

Grouped by structure: those above with a COOH group (2)
SMILES | Potency
CCc1ccc(NC(=O)CSc2nc3ccsc3c(=O)n2CCC(=O)O)cc1 | active: 7.38 µM
O=C(COc1ccc2c(c1)oc(=O)c1ccccc12)NCC1CCC(C(=O)O)CC1 (configuration not stated) | inactive

Following part.

SMILES | Potency
O=C(O)c1cc(Cl)c(Cl)cc1C(=O)Nc1cccc2cccnc12 | inconclusive: 11.7 µM [inhibitor, single point]
CCN1CCN(C(=S)Nc2ccc(Cl)c(Cl)c2)CC1 | inconclusive: 0.329 µM [inhibitor, full curve, poor fit]
Cc1nc2scc(-c3ccc(Cl)cc3)c2c(=O)o1 | inactive
COC(=O)c1cc2sc(Cl)cc2n1CC(=O)Nc1cccc(SC)c1 | inactive
CCCc1cc(=O)[nH]c(SCC(=O)Nc2cc(S(=O)(=O)N3CCCCC3)ccc2C)n1 | inconclusive: 18.5 µM [inhibitor, single point]
COc1ccc(-n2c(Cc3cccn3C)nnc2SCC(=O)Nc2ccc(C)cc2)cc1 | inconclusive: 10.4 µM [inhibitor, single point]
CCOC(=O)C1(Cc2ccc(O)cc2)NC(c2ccccc2F)C2C(=O)N(C)C(=O)C21 (configuration not stated) | inactive
O=C(Nc1cccc(S(=O)(=O)N2CCCCC2)c1)C1CCCC1 | inconclusive: 0.131 µM [inhibitor, partial curve, poor fit]
COC(=O)C1=C(c2ccc(-c3ccccc3)c(F)c2)C[C@@H]2CC[C@H]1N2C(=O)N1CCCC1 | inconclusive: 13.1 µM [inhibitor, partial curve]
CC(C)(C)CC(=O)Nc1nnc(-c2cccs2)s1 | inconclusive: 18.5 µM [inhibitor, single point]
O=c1cc(N2CCN(c3cccc(Cl)c3)CC2)[nH]c(=O)n1C1CCCCC1 | inconclusive: 10.4 µM [inhibitor, partial curve]
CCn1cc(C(=O)NC2CCCCC2)c(=O)c2cc(S(=O)(=O)N(C)C)ccc21 | inconclusive: 11.7 µM [inhibitor, partial curve, poor fit]
Cc1nc(SCc2ccc(Cl)c(Cl)c2)n[nH]1 | inconclusive: 11.7 µM [inhibitor, partial curve, poor fit]
CC(=O)c1c(C)[nH]c(C(=O)N(CCc2ccccc2)Cc2ccccc2)c1C | inactive
CSc1nc(NC(C)=O)nc(C)c1Cl | inactive
Cc1[nH]c(=O)[nH]c(=O)c1S(=O)(=O)N1CCN(c2ccccc2F)CC1 | inactive
O=C(c1cccs1)N1CCN(C(=O)c2ccco2)c2ccccc2C1 | inconclusive: 3.7 µM [inhibitor, partial curve, poor fit]
Cc1ccc(N=c2c([N+](=O)[O-])nn(-c3ccc4c(c3)OCCO4)n2O)cc1F | inconclusive: 5.22 µM [inhibitor, partial curve, poor fit]
O=C(CNC(=O)c1ccccc1Cl)N/N=C/c1ccc([N+](=O)[O-])s1 | inconclusive: 1.47 µM [inhibitor, full curve, poor fit]
COc1cccc(-n2c(/C=C/c3ccccn3)nc3ccccc3c2=O)c1 | inactive
O=C1CC(N2CCC(c3nc4ccccc4o3)CC2)C(=O)N1Cc1cccs1 (configuration not stated) | inactive
Cc1ccc(NC(=O)c2ccc3ccccc3n2)cc1S(=O)(=O)N1CCOCC1 | inconclusive: 11.7 µM [inhibitor, partial curve, poor fit]
COc1cccc(C2c3[nH]c4ccccc4c3C[C@H]3C(=O)N(c4ccccc4C(=O)N4CCC[C@H]4C(=O)O)C(=O)N23)c1 (some centres not stated) | inconclusive: 0.0928 µM [inhibitor, full curve, poor fit]

Some of the entries so far, as a markdown table.

| SMILES | Potency |
| --- | --- |
| COC(=O)C1=C(c2ccc(-c3ccccc3)c(F)c2)C[C@@H]2CC[C@H]1N2C(=O)N1CCCC1 | inconclusive: 13.1 µM [inhibitor, partial curve] |
| O=C1CC(N2CCC(c3nc4ccccc4o3)CC2)C(=O)N1Cc1cccs1 (configuration not stated) | inactive |

(next part)

SMILES | Potency
CCn1cc(C(=O)NCCCN(C)c2ccccc2)c(=O)c2cc(S(=O)(=O)N(C)C)ccc21 | active: 14.7 µM
O=C(Nc1sc2c(c1C(=O)NCc1cccnc1)CCCC2)c1ccco1 | inconclusive: 16.5 µM [inhibitor, single point]
CC(C)(C)NS(=O)(=O)c1ccc(NC(=O)C(Sc2ccccc2)c2ccccc2)cc1 (configuration not stated) | inconclusive: 11.7 µM [inhibitor, single point]
CC1Cc2ccccc2N1C(=O)Cn1cc([N+](=O)[O-])cn1 (configuration not stated) | inactive
CC1CCN(C(c2nnnn2CCc2ccccc2)C(C)C)CC1 (configuration not stated) | inconclusive: 18.5 µM [inhibitor, single point]
COc1ccc2c(c1)C(=O)C(=O)N2 | inconclusive: 18.5 µM [inhibitor, single point]
COc1ccc(NC(=O)/C(Cl)=C(/Cl)S(=O)(=O)Cc2ccc(C)cc2)cn1 | inconclusive: 18.5 µM [inhibitor, single point]
Brc1ccccc1-n1nnc(-c2ccnc3ccccc23)n1 | inconclusive: 18.5 µM [inhibitor, partial curve, poor fit]
CC1CCN(C(=O)CN2C(=O)NC3(CCC(C)CC3)C2=O)CC1 (configuration not stated) | inactive
CCCCn1nc(C(=O)NCC(=O)Nc2c(C)cccc2C)c2ccccc2c1=O | inconclusive: 11.7 µM [inhibitor, single point]
COc1cccc(Oc2coc3c(CN4CCOCC4)c(O)ccc3c2=O)c1 | inconclusive: 9.28 µM [inhibitor, single point]
O=C1c2ccccc2C(Nc2ccc(Cl)cc2)N1CCN1CCOCC1 (configuration not stated) | inconclusive: 18.5 µM [inhibitor, single point]
CC(=O)C1=C(O)C(=O)N(CCC(=O)O)C1c1ccccc1Cl (configuration not stated) | inconclusive: 23.3 µM [inhibitor, single point]
CCCCCCN(C(=O)CCCCCN1C(=O)NC(c2cccc([N+](=O)[O-])c2)C(C(=O)OCc2ccccc2)=C1C)C(C(=O)NCCCC)c1ccc(OCC(=O)OC)c(C(=O)OC)c1 (configuration not stated) | active: 5.22 µM
COc1ccccc1NC1=CC(=O)CC(c2ccccc2)C1 (configuration not stated) | inconclusive: 18.5 µM [inhibitor, single point]
CC(CCc1ccccc1)NC(=O)COC(=O)C1CCC(C(C)(C)C)CC1 (configuration not stated) | inconclusive: 18.5 µM [inhibitor, single point]
N#CC1(NC(=O)CSc2nnc(Nc3ccccc3F)s2)CCCC1 | active: 11.7 µM
O=C(NC1(C(F)(F)F)N=C2SCCN2C1=O)C1CCCCC1 (configuration not stated) | inconclusive: 18.5 µM [inhibitor, single point]
O=S(=O)(NC1CC1)c1ccc(S(=O)(=O)N2CCCC3(CCCCC3)C2)cc1 | inconclusive: 18.5 µM [inhibitor, single point]
O=C(c1ccc2ccccc2c1)N1CCCC1 | inactive
OC[C@@H]1O[C@](CO)(O[C@H]2O[C@H](CO)[C@@H](O)[C@H](O)[C@H]2O)[C@H](O)[C@H]1O | inactive
